Data reported in article PMC6547012, “TCP Transcription Factors Associate with PHYTOCHROME INTERACTING FACTOR 4 and CRYPTOCHROME 1 to Regulate Thermomorphogenesis in Arabidopsis thaliana” (iScience, 2019).
No constants are given. Whether binding was seen depends on the method and setting. For some assays here: A result given as binding can be weak or reduced; the word gives no strength. Where a sequence is shown, tags or fusion partners need not be part of it.

Experiments:
[1] = molecular target: CRY1 CCE domain (yeast two-hybrid fusion) (Arabidopsis thaliana); test: two-hybrid; yeast two-hybrid of TCP17 with the PHR or CCE domain of CRY1
[2] = molecular target: CRY1 PHR domain (yeast two-hybrid fusion) (Arabidopsis thaliana); test: as above

B1: TCP17 (yeast two-hybrid fusion) (protein, UniProt Q9LEZ9 1-242)
chain: MGIKKEDQKSSLSLLTQRWNNPRIVRVSRAFGGKDRHSKVCTVRGLRDRRIRLSVMTAIQVYDLQERLGLSQPSKVIDWLLEVAKNDVDLLPPLQFPPGFHQLNPNLTGLGESFPGVFDLGRTQREALDLEKRKWVNLDHVFDHIDHHNHFSNSIQSNKLYFPTITSSSSSYHYNLGHLQQSLLDQSGNVTVAFSNNYNNNNLNPPAAETMSSLFPTRYPSFLGGGQLQLFSSTSSQPDHIE
binding [1]: no binding | binding [2]: binds
